According to patent publication US10479979B2, “Method for making and using cold atmospheric plasma stimulated media for cancer treatment” (U.S. Patent Innovations, LLC, priority 2015, dated 2019):
Some compounds share one wording; it may come from a single statement.

Tested on: cancer cells
Test: Reaction of amino acids with effective species in CAPs DMEM, cancer cells as cell probe
Format: cell-based
Details: 2.4 mM amino acid rich DMEM, among 20 amino acids

SMILES | reactivity towards the effective species in CAPs media
NCCCC[C@H](N)C(=O)O [lysine] | react significantly with the effective species
NC(=O)C[C@H](N)C(=O)O [asparagine] | react significantly with the effective species
N=C(N)NCCC[C@H](N)C(=O)O [arginine] | react significantly with the effective species
NC(=O)CC[C@H](N)C(=O)O [glutamine] | react significantly with the effective species
